The values that follow come from patent US11420967B2 (priority 2018, dated 2022).

The series concerns NCI-60 cancer cell line panel. As to the kind of experiment: NCI-60 cancer cell line panel screen (percent growth inhibition). It counts as cell-based, human. The conditions noted are these: NCI-60 cell lines; 10 μM, 48 hours. The source says: FIG. 4 illustrates analysis of cell-killing activity of select compounds of the disclosure in NCI-60 cancer cell line panel. 8, 20, 27 and 23 (left panel) and taxol, thalipcarpine, and maytansine activity (right panel) in the NCI-60 cell lines.
This screening platform measures the antitumor activities of compounds expressed as percent growth inhibition, which differentiates the compound's activity at inhibiting cell proliferation and reducing cell number (i.e. killing cells). […] Two GBM cells lines included in the NCI-60 panel, SF-295 and SF-539, were among the top ten cell lines that were the most sensitive to 8, 20 and 27 treatments (FIG. 6). Their respective EC50 values of the compounds measured in these cells mirrored their EC50 values measured in T98G cells. Additional cell lines among the top ten cell lines that were sensitive to these three compounds were three cell lines of colon cancer origin: Colo205, HT-29 and HCC-2998 (FIG. 5).

Consider `CCn1c2ccccc2c2cc(C(=O)c3cccc4c3CCCN4)ccc21` [Compound 23, (9-ethyl-9H-carbazol-3-yl)(1,2,3,4-tetrahydroquinolin-5-yl)methanone], for which the “growth inhibition: delta” value was 10.42 and the “growth inhibition: range” value is listed as 28.77.
